Only a part is listed here, and it is no random draw. This is a noisy data set.

Protein sequences, listed by entry. Tags and fused reporters are not part of them. Lines headed by an entry give the natural chain unless they say otherwise; changes in a name come on top.
UniProt Q00403, whole entry: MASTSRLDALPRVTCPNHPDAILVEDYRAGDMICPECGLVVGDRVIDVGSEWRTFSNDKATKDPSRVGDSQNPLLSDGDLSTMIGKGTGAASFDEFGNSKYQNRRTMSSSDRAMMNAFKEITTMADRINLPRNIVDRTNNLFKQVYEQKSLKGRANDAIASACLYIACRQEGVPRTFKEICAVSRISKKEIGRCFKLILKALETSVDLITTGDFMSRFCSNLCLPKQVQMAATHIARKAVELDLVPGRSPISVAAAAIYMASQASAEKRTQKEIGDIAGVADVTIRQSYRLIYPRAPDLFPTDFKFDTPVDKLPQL
UniProt P78362, whole entry, looked up: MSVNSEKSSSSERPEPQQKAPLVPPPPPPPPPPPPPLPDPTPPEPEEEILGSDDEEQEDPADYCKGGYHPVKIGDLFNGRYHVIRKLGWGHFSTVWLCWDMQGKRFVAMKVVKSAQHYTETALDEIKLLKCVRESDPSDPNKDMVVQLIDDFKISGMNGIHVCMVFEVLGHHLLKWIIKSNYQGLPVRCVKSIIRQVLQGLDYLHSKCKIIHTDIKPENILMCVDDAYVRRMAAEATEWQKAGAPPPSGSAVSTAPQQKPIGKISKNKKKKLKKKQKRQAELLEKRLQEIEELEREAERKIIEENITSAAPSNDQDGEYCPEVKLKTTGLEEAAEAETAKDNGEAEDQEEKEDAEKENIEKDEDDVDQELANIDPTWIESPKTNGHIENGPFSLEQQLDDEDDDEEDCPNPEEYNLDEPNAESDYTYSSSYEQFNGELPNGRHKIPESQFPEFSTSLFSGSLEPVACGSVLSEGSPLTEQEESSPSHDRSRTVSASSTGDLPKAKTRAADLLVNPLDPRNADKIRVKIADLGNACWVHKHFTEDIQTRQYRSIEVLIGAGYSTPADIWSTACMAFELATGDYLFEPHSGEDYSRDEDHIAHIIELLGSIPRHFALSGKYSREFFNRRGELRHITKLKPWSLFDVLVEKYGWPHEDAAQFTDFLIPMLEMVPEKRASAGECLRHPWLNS
UniProt Q00577: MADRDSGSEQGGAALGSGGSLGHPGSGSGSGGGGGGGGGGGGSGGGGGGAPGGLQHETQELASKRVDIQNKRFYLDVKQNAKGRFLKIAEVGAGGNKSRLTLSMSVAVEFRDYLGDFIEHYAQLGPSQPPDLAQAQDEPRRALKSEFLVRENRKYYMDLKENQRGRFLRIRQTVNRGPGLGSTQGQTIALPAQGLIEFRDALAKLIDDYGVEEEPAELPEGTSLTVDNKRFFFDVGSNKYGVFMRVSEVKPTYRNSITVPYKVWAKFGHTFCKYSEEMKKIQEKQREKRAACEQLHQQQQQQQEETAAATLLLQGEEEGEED
UniProt Q00796: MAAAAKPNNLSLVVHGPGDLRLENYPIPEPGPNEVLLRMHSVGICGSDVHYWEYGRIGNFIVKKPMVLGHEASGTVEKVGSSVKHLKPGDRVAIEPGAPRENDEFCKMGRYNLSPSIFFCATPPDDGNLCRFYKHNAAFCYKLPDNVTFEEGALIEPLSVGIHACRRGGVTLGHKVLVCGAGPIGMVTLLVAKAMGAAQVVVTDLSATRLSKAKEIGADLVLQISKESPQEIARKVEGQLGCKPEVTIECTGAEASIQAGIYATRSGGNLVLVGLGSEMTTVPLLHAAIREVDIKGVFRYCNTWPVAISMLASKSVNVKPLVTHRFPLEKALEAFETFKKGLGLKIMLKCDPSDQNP
UniProt Q01813: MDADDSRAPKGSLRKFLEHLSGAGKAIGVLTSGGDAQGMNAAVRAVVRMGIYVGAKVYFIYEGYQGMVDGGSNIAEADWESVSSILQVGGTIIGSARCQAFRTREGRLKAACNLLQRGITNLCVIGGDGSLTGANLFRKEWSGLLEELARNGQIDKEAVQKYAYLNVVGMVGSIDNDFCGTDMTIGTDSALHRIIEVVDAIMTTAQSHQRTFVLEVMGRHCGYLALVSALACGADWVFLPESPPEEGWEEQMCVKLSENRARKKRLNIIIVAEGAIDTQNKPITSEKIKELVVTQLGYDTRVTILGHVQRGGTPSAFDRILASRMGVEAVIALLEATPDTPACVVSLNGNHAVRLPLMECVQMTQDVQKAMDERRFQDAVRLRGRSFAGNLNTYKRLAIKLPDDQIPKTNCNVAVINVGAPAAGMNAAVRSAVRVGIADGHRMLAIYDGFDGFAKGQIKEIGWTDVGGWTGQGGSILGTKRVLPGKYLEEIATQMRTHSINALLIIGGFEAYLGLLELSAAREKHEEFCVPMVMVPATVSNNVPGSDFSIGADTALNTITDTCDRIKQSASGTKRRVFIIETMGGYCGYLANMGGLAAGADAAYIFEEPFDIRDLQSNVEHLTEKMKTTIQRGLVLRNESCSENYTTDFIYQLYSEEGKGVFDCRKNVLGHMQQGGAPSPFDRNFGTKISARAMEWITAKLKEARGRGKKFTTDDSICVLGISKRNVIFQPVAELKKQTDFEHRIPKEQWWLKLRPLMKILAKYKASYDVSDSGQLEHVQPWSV
UniProt Q00839, whole entry, looked up: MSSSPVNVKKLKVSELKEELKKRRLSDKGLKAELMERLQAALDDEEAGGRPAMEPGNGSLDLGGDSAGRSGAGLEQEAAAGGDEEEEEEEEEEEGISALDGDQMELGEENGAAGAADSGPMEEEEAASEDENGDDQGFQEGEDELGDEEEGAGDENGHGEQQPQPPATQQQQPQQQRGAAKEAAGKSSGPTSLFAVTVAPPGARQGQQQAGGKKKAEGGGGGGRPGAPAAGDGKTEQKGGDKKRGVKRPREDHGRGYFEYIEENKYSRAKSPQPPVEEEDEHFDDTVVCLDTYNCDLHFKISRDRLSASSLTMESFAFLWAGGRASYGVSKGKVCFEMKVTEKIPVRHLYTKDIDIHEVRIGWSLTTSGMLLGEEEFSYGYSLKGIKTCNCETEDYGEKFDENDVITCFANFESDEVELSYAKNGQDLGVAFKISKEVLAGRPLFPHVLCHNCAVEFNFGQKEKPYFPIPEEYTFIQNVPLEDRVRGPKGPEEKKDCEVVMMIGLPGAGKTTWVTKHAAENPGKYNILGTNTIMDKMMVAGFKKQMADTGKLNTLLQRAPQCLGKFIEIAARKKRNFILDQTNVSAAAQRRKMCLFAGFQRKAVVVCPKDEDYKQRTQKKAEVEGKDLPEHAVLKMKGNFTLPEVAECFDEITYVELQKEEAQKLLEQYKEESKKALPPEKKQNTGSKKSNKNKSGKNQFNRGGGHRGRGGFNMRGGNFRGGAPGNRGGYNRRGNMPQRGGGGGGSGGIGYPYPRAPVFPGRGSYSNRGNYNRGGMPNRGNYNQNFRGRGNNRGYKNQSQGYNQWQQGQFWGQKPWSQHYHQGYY
UniProt Q01844: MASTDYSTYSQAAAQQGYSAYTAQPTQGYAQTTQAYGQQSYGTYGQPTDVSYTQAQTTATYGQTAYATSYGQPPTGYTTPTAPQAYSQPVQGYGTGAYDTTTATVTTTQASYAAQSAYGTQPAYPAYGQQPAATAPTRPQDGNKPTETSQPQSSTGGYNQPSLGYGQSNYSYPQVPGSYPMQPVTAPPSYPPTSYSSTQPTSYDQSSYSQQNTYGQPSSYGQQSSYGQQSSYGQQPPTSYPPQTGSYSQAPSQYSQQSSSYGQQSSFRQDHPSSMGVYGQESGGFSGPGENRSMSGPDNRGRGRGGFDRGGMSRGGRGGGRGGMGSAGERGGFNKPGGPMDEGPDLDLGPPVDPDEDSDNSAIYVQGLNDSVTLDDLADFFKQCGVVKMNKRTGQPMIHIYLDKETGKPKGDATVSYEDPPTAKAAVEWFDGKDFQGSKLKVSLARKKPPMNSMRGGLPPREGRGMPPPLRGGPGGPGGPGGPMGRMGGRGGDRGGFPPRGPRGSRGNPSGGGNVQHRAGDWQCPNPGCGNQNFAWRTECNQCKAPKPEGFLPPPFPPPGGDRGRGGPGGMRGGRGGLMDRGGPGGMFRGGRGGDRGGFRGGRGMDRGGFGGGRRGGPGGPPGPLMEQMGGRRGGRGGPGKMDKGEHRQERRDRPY
UniProt P63208, whole entry, looked up: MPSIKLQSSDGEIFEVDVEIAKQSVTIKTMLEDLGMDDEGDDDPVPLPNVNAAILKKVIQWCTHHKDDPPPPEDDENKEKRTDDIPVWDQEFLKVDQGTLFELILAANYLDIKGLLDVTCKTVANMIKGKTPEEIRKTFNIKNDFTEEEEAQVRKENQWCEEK
UniProt Q00610: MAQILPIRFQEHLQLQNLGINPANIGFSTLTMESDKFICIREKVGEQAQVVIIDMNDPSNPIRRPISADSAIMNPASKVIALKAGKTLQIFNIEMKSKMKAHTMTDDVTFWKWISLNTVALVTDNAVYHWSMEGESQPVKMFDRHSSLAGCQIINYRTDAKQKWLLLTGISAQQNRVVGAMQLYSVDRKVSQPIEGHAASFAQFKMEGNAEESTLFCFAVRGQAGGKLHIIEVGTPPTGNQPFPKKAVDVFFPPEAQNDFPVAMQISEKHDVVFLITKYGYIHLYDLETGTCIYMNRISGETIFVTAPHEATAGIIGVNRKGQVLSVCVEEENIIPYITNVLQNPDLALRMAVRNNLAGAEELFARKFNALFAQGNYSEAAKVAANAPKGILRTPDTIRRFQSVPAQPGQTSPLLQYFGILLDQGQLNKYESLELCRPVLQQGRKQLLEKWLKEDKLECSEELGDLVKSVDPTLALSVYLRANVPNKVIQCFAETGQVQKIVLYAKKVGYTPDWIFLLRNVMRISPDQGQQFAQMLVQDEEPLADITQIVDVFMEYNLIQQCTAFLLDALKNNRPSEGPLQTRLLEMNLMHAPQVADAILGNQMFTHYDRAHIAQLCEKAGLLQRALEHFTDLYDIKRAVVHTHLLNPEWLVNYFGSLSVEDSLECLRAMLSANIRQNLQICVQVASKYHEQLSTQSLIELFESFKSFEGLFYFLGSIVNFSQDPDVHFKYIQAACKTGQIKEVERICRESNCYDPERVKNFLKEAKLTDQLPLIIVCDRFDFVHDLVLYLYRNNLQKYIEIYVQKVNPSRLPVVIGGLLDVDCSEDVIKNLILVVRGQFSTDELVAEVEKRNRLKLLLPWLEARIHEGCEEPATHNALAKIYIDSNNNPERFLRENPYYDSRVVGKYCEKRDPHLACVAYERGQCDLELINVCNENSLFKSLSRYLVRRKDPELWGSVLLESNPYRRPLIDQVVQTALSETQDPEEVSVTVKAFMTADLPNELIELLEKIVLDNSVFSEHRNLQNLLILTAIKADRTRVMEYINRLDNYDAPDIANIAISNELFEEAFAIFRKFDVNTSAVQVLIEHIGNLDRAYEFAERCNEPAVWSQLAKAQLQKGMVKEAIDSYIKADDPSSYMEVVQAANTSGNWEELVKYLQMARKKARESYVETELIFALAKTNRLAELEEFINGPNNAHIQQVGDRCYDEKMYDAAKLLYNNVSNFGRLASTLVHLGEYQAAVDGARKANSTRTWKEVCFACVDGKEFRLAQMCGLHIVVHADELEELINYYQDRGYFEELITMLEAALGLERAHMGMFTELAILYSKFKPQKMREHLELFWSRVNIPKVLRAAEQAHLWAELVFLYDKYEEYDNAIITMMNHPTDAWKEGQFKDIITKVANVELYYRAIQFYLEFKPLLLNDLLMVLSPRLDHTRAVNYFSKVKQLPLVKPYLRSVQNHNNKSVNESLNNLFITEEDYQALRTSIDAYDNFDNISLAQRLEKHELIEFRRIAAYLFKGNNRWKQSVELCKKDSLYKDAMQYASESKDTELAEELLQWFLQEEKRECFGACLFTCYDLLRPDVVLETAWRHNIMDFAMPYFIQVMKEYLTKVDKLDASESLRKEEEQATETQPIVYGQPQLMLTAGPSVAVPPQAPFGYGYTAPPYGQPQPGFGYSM
UniProt P83916, whole entry, looked up: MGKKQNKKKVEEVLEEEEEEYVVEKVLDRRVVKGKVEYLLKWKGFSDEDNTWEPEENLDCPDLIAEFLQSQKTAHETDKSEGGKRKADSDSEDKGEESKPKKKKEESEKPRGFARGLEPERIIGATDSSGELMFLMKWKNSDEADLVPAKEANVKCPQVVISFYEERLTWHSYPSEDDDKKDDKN
UniProt P63279, whole entry: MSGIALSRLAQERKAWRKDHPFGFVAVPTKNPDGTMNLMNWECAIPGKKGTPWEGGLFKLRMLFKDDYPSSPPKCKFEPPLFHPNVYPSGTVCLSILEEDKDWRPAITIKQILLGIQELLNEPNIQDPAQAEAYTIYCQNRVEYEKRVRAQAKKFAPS
UniProt P67775, whole entry, looked up: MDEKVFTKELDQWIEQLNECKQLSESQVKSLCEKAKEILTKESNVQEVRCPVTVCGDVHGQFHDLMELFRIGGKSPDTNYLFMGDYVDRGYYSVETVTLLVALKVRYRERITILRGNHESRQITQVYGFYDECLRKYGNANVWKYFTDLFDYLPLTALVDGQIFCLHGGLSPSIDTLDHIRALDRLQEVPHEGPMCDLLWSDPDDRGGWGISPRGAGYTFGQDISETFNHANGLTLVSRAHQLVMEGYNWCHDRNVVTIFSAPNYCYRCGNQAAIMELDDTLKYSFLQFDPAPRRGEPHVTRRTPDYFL

Compound in this assay: COC(=O)/C=C/c1ccccc1 [methyl cinnamate]
Kind of assay: log2 ratio of iodoacetamide-alkyne labeling of the cysteine site, DMSO over compound (competition); higher = stronger covalent engagement of the cysteine by the compound, active = 1 or more. Particulars: 500 µM; treatment time 1 h; system: HEK293T cell lysate. The gist of the method: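 Reporter intensities give each cysteine's log2 competition ratio as the mean of control channels over the mean of compound channels. The samples were HEK293T lysate (2 mg/mL) given vehicle or electrophile (500 µM, 1 h, ambient temperature), then iodoacetamide alkyne (1 h), followed by click coupling to sCIP-TMT reagents, pooling, trypsin digestion overnight at 37 °C, streptavidin enrichment, acid elution, Orbitrap Eclipse LC-MS/MS with FAIMS and FragPipe quantification. Duplicate channels and three replicates were run, and cysteines quantified in only one replicate were discarded.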
UniProt P62263_C85: the “log2 ratio of iodoacetamide-alkyne labeling” value (“log2 ratio” for short) is inactive: 0.136. Consider GTF2B C15 (UniProt Q00403), for which the “log2 ratio” value is inactive: 0.0157. For the target UniProt P68363_C129, the “log2 ratio” value is inactive: -0.0648.

GTF2I C903 (UniProt P78347): the “log2 ratio” value was inactive: -0.00452. Then SRPK2 C320 (UniProt P78362), with inactive: 0.214; and RPS27A C149 (UniProt P62979), with inactive: 0.237.

In the case of SATB1 C529 (UniProt Q01826), the “log2 ratio” value is inactive: 0.279. With P86790_C471 (UniProt P86791+P86790), the “log2 ratio” value was inactive: 0.177. As for PURA C292 (UniProt Q00577), the “log2 ratio” value is inactive: 0.203.

For SORD C45 (UniProt Q00796), the “log2 ratio” value is inactive: 0.0198. As to UniProt P62826_C112, the “log2 ratio” value is inactive: -0.00891.

On to PRR3 C176 (UniProt P79522), for which the “log2 ratio” value is inactive: 0.352. As for PFKP C123 (UniProt Q01813), the figure is inactive: -0.12; as for HNRNPU C562 (UniProt Q00839), inactive: 0.232; as for EWSR1 C543 (UniProt Q01844), inactive: 0.13. Consider SKP1 C120 (UniProt P63208), for which the “log2 ratio” value was inactive: 0.17.

As for CLTC C918 (UniProt Q00610), the “log2 ratio” value is inactive: 0.174. Then EXOSC10 C73 (UniProt Q01780), with inactive: 0.132; and UniProt P83916_C156, with inactive: 0.302; and SPTBN1 C964 (UniProt Q01082), with inactive: 0.0684.

UniProt P63279_C138: the “log2 ratio” value is inactive: -0.00953. Then PPP2CA C196 (UniProt P67775), with inactive: 0.198.

These data come from the supplement of paper PMC11006884.
